Experimental data taken from patent US8541460B2, “PDK-1/Akt signaling inhibitors” (The Ohio State University, priority 2003, dated 2013).

Legend:
[1] = test system: K-562; assay: NCI DTP cell line screen (SRB), Leukemia; format: cell-based
Method: (§1) Screening of compounds 70 and 71 against several cancer cell lines The human tumor cell lines of the cancer screening panel are grown in RPMI 1640 medium containing 5% fetal bovine serum and 2 mM L-glutamine. For a typical screening experiment, cells are inoculated into 96 well microtiter plates in 100 μL at plating densities ranging from 5,000 to 40,000 cells/well depending on the doubling time of individual cell lines. After cell inoculation, the microtiter plates are incubated at 37° C., 5% CO2, 95% air and 100% relative humidity for 24 h prior to addition of experimental drugs.
(§2) After 24 h, two plates of each cell line are fixed in situ with TCA, to represent a measurement of the cell population for each cell line at the time of drug addition (Tz). Experimental drugs are solubilized in dimethyl sulfoxide at 400-fold the desired final maximum test concentration and stored frozen prior to use. At the time of drug addition, an aliquot of frozen concentrate is thawed and diluted to twice the desired final maximum test concentration with complete medium containing 50 μg/ml gentamicin. Additional four, 10-fold or ½ log serial dilutions are made to provide a total of five drug concentrations plus control. Aliquots of 100 μl of these different drug dilutions are added to the appropriate microtiter wells already containing 100 μl of medium, resulting in the required final drug concentrations.
(§3) Following drug addition, the plates are incubated for an additional 48 h at 37° C., 5% CO2, 95% air, and 100% relative humidity. For adherent cells, the assay is terminated by the addition of cold TCA. Cells are fixed in situ by the gentle addition of 50 μl of cold 50% (w/v) TCA (final concentration, 10% TCA) and incubated for 60 minutes at 4° C. The supernatant is discarded, and the plates are washed five times with tap water and air dried. Sulforhodamine B (SRB) solution (100 μl) at 0.4% (w/v) in 1% acetic acid is added to each well, and plates are incubated for 10 minutes at room temperature. After staining, unbound dye is removed by washing five times with 1% acetic acid and the plates are air dried. Bound stain is subsequently solubilized with 10 mM trizma base, and the absorbance is read on an automated plate reader at a wavelength of 515 nm. For suspension cells, the methodology is the same except that the assay is terminated by fixing settled cells at the bottom of the wells by gently adding 50 μl of 80% TCA (final concentration, 16% TCA). Using the seven absorbance measurements [time zero, (Tz), control growth, (C), and test growth in the presence of drug at the five concentration levels (Ti)], the percentage growth is calculated at each of the drug concentrations levels. Percentage growth inhibition is calculated as: [(Ti−Tz)/(C−Tz)]×100 for concentrations for which Ti>/=Tz [(Ti−Tz)/Tz]×100 for concentrations for which Ti<Tz
(§4) Three dose response parameters are calculated for each experimental agent. […] The drug concentration resulting in total growth inhibition (TGI) is calculated from Ti=Tz. […] Values are calculated for each of these three parameters if the level of activity is reached; however, if the effect is not reached or is exceeded, the value for that parameter is expressed as greater or less than the maximum or minimum concentration tested.
(§5) The methods described were used to test compounds 70 and 71 on a panel of sixty cell lines under a screening service provided by the Developmental Therapeutics Program at the National Institutes of Health. Shown in FIG. 1C are 1, RPMI-8226 leukemia cells; 2; NCI-H322M non-small cell lung cancer cells; 3, HT29 colon cancer cells; 4, U251 CNS cancer cells; 5, SK-MEL-28 melanoma cancer cells; 6, SK-OV-3 ovarian cancer cells; 7, RXF 393 renal cancer cells; 8, PC-3 prostate cancer cells; 9, MDA-MB-231 breast cancer cells.

[2] = test system: MOLT-4; assay: NCI DTP cell line screen (SRB), Leukemia; format: cell-based
Method: as §1, §2, §3, §4, §5

[3] = test system: HOP-92; assay: NCI DTP cell line screen (SRB), Non-Small Cell Lung Cancer; format: cell-based
[4] = test system: SF-268; assay: NCI DTP cell line screen (SRB), CNS Cancer; format: cell-based
Method: as §1, §2, §3, §4, §5

[5] = test system: SF-295; assay: NCI DTP cell line screen (SRB), CNS Cancer; format: cell-based
Method: as §1, §2, §3, §4, §5

[6] = test system: U251; assay: NCI DTP cell line screen (SRB), CNS Cancer; format: cell-based, human
Method: as §1, §2, §3, §4
(§6) The methods described were used to test compounds 70 and 71 on a panel of sixty cell lines under a screening service provided by the Developmental Therapeutics Program at the National Institutes of Health. […]

[7] = test system: IGROV1; assay: NCI DTP cell line screen (SRB), Ovarian Cancer; format: cell-based
Method: as §1, §2, §3, §4, §5

[8] = test system: OVCAR-3; assay: NCI DTP cell line screen (SRB), Ovarian Cancer; format: cell-based
Method: as §1, §2, §3, §4, §5

[9] = test system: OVCAR-4; assay: NCI DTP cell line screen (SRB), Ovarian Cancer; format: cell-based
Method: as §1, §2, §3, §4, §5

[10] = test system: OVCAR-5; assay: NCI DTP cell line screen (SRB), Ovarian Cancer; format: cell-based
Method: as §1, §2, §3, §4, §5

[11] = test system: OVCAR-8; assay: NCI DTP cell line screen (SRB), Ovarian Cancer; format: cell-based
Method: as §1, §2, §3, §4, §5

[12] = test system: SK-OV-3; assay: NCI DTP cell line screen (SRB), Ovarian Cancer; format: cell-based, human
Method: as §1, §2, §3, §4, §6

[13] = test system: PC-3; assay: NCI DTP cell line screen (SRB), Prostate Cancer; format: cell-based
Method: as §1, §2, §3, §4, §6

NCC(=O)Nc1ccc(-n2nc(C(F)(F)F)cc2-c2ccc3c(ccc4ccccc43)c2)cc1 [Compound 70, 2-Amino-N-{4-[5-(2-phenanthrenyl)-3-(trifluoromethyl)-1H-pyrazol-1-yl]-phenyl}-acetamide]
Mean Optical Densities ([1]; Log10 Concentration −4.0): 0.247 | Mean Optical Densities ([1]; Log10 Concentration −5.0): 0.209 | Mean Optical Densities ([1]; Log10 Concentration −6.0): 0.681 | Mean Optical Densities ([1]; Log10 Concentration −7.0): 1.022 | Mean Optical Densities ([1]; Log10 Concentration −8.0): 1.435 | Mean Optical Densities ([2]; Log10 Concentration −4.0): 0.296 | Mean Optical Densities ([2]; Log10 Concentration −5.0): 0.180 | Mean Optical Densities ([2]; Log10 Concentration −6.0): 0.614 | Mean Optical Densities ([2]; Log10 Concentration −7.0): 0.951 | Mean Optical Densities ([2]; Log10 Concentration −8.0): 0.964 | Mean Optical Densities ([3]; Log10 Concentration −4.0): 0.267 | Mean Optical Densities ([3]; Log10 Concentration −5.0): 0.095 | Mean Optical Densities ([3]; Log10 Concentration −6.0): 1.465 | Mean Optical Densities ([3]; Log10 Concentration −7.0): 1.474 | Mean Optical Densities ([3]; Log10 Concentration −8.0): 1.509 | Mean Optical Densities ([4]; Log10 Concentration −4.0): 0.280 | Mean Optical Densities ([4]; Log10 Concentration −5.0): 0.252 | Mean Optical Densities ([4]; Log10 Concentration −6.0): 0.789 | Mean Optical Densities ([4]; Log10 Concentration −7.0): 0.930 | Mean Optical Densities ([4]; Log10 Concentration −8.0): 1.016 | Mean Optical Densities ([5]; Log10 Concentration −4.0): 0.287 | Mean Optical Densities ([5]; Log10 Concentration −5.0): 0.225 | Mean Optical Densities ([5]; Log10 Concentration −6.0): 0.915 | Mean Optical Densities ([5]; Log10 Concentration −7.0): 1.190 | Mean Optical Densities ([5]; Log10 Concentration −8.0): 1.173 | Mean Optical Densities ([6]; Log10 Concentration −4.0): 0.320 | Mean Optical Densities ([6]; Log10 Concentration −5.0): 0.144 | Mean Optical Densities ([6]; Log10 Concentration −6.0): 0.810 | Mean Optical Densities ([6]; Log10 Concentration −7.0): 1.139 | Mean Optical Densities ([6]; Log10 Concentration −8.0): 1.298 | Mean Optical Densities ([7]; Log10 Concentration −4.0): 0.302 | Mean Optical Densities ([7]; Log10 Concentration −5.0): 0.235 | Mean Optical Densities ([7]; Log10 Concentration −6.0): 0.902 | Mean Optical Densities ([7]; Log10 Concentration −7.0): 1.103 | Mean Optical Densities ([7]; Log10 Concentration −8.0): 1.044 | Mean Optical Densities ([8]; Log10 Concentration −4.0): 0.301 | Mean Optical Densities ([8]; Log10 Concentration −5.0): 0.140 | Mean Optical Densities ([8]; Log10 Concentration −6.0): 0.816 | Mean Optical Densities ([8]; Log10 Concentration −7.0): 0.849 | Mean Optical Densities ([8]; Log10 Concentration −8.0): 0.879 | Mean Optical Densities ([9]; Log10 Concentration −4.0): 0.172 | Mean Optical Densities ([9]; Log10 Concentration −5.0): 0.093 | Mean Optical Densities ([9]; Log10 Concentration −6.0): 1.086 | Mean Optical Densities ([9]; Log10 Concentration −7.0): 1.073 | Mean Optical Densities ([9]; Log10 Concentration −8.0): 1.114 | Mean Optical Densities ([10]; Log10 Concentration −4.0): 0.149 | Mean Optical Densities ([10]; Log10 Concentration −5.0): 0.087 | Mean Optical Densities ([10]; Log10 Concentration −6.0): 1.412 | Mean Optical Densities ([10]; Log10 Concentration −7.0): 1.540 | Mean Optical Densities ([10]; Log10 Concentration −8.0): 1.480 | Mean Optical Densities ([11]; Log10 Concentration −4.0): 0.306 | Mean Optical Densities ([11]; Log10 Concentration −5.0): 0.269 | Mean Optical Densities ([11]; Log10 Concentration −6.0): 0.755 | Mean Optical Densities ([11]; Log10 Concentration −7.0): 1.114 | Mean Optical Densities ([11]; Log10 Concentration −8.0): 1.078 | Mean Optical Densities ([12]; Log10 Concentration −4.0): 0.302 | Mean Optical Densities ([12]; Log10 Concentration −5.0): 0.083 | Mean Optical Densities ([12]; Log10 Concentration −6.0): 1.262 | Mean Optical Densities ([12]; Log10 Concentration −7.0): 1.597 | Mean Optical Densities ([12]; Log10 Concentration −8.0): 1.514 | Mean Optical Densities ([13]; Log10 Concentration −4.0): 0.108 | Mean Optical Densities ([13]; Log10 Concentration −5.0): 0.055 | Mean Optical Densities ([13]; Log10 Concentration −6.0): 0.593 | Mean Optical Densities ([13]; Log10 Concentration −7.0): 0.763 | Mean Optical Densities ([13]; Log10 Concentration −8.0): 0.910
